# Data reported in the supplement of paper PMC8728848.
# This is one part of the list.
# Experiments:
# Experiment in all cases: glycan array binding signal (z-score within array); higher = stronger binding
# Conditions in all cases: glycan notation: IUPAC condensed, linker removed
# Fuc(a1-2)Gal = target: Fuc(a1-2)Gal
# Method in brief: (§1)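 The binding signal is a Z-score computed within each array. Data were drawn from 3228 arrays in the Consortium for Functional Glycomics database, restricted to those with a known protein sequence. Scores were averaged over arrays of the same protein sequence at different concentrations or buffers, and over linkers, and negative values can be taken as non-binding.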
# Fuc(a1-2)Gal(b1-3)GalNAc = target: Fuc(a1-2)Gal(b1-3)GalNAc
# Method in brief: as §1
# [1] = target: Fuc(a1-2)Gal(b1-3)GalNAc(b1-3)Gal
# Method in brief: as §1
# [2] = target: Fuc(a1-2)Gal(b1-3)GalNAc(b1-3)Gal(a1-4)Gal(b1-4)Glc
# Method in brief: as §1
# [3] = target: Fuc(a1-2)Gal(b1-3)GalNAc(b1-4)[Neu5Ac(a2-3)]Gal(b1-4)Glc
# Method in brief: as §1
# Fuc(a1-2)Gal(b1-3)GlcNAc = target: Fuc(a1-2)Gal(b1-3)GlcNAc
# Method in brief: as §1
# [4] = target: Fuc(a1-2)Gal(b1-3)GlcNAc(b1-3)Gal(b1-4)Glc
# Method in brief: as §1
# [5] = target: Fuc(a1-2)Gal(b1-3)[Fuc(a1-4)]GlcNAc
# Method in brief: as §1
# Fuc(a1-2)Gal(b1-4)Glc = target: Fuc(a1-2)Gal(b1-4)Glc
# Method in brief: as §1
# Fuc(a1-2)Gal(b1-4)Glc6S = target: Fuc(a1-2)Gal(b1-4)Glc6S
# Method in brief: as §1
# Fuc(a1-2)Gal(b1-4)GlcNAc = target: Fuc(a1-2)Gal(b1-4)GlcNAc
# Method in brief: as §1
# [6] = target: Fuc(a1-2)Gal(b1-4)GlcNAc(b1-3)Gal(b1-4)GlcNAc
# Method in brief: as §1
# [7] = target: Fuc(a1-2)Gal(b1-4)GlcNAc(b1-3)Gal(b1-4)GlcNAc(b1-3)Gal(b1-4)GlcNAc
# Method in brief: as §1
# [8] = target: Fuc(a1-2)Gal(b1-4)GlcNAc6S
# Method in brief: as §1
# [9] = target: Fuc(a1-2)Gal(b1-4)[Fuc(a1-3)]GlcNAc
# Method in brief: as §1
# [10] = target: Fuc(a1-2)Gal(b1-4)[Fuc(a1-3)]GlcNAc(b1-3)Gal(b1-4)[Fuc(a1-3)]GlcNAc
# Method in brief: as §1
# [11] = target: Fuc(a1-2)Gal(b1-4)[Fuc(a1-3)]GlcNAc(b1-3)Gal(b1-4)[Fuc(a1-3)]GlcNAc(b1-3)Gal(b1-4)[Fuc(a1-3)]GlcNAc
# Method in brief: as §1
# Fuc(a1-2)Gal6S(b1-4)Glc = target: Fuc(a1-2)Gal6S(b1-4)Glc
# Method in brief: as §1
# [12] = target: Fuc(a1-2)Gal6S(b1-4)Glc6S
# Method in brief: as §1
# [13] = target: Fuc(a1-2)Gal6S(b1-4)GlcNAc
# Method in brief: as §1
# Fuc(a1-2)[Gal(a1-3)]Gal = target: Fuc(a1-2)[Gal(a1-3)]Gal
# Method in brief: as §1
# [14] = target: Fuc(a1-2)[Gal(a1-3)]Gal(b1-3)GlcNAc
# Method in brief: as §1
# [15] = target: Fuc(a1-2)[Gal(a1-3)]Gal(b1-4)Glc
# Method in brief: as §1
# [16] = target: Fuc(a1-2)[Gal(a1-3)]Gal(b1-4)GlcNAc
# Method in brief: as §1
# [17] = target: Fuc(a1-2)[Gal(a1-3)]Gal(b1-4)[Fuc(a1-3)]GlcNAc
# Method in brief: as §1
# [18] = target: Fuc(a1-2)[Gal(a1-4)]Gal(b1-4)GlcNAc
# Method in brief: as §1
# [19] = target: Fuc(a1-2)[GalNAc(a1-3)]Gal
# Method in brief: as §1
# [20] = target: Fuc(a1-2)[GalNAc(a1-3)]Gal(b1-3)GlcNAc
# Method in brief: as §1
# [21] = target: Fuc(a1-2)[GalNAc(a1-3)]Gal(b1-4)Glc
# Method in brief: as §1
# [22] = target: Fuc(a1-2)[GalNAc(a1-3)]Gal(b1-4)GlcNAc
# Method in brief: as §1
# [23] = target: Fuc(a1-2)[GalNAc(a1-3)]Gal(b1-4)[Fuc(a1-3)]GlcNAc
# Method in brief: as §1
# [24] = target: Fuc(a1-2)[GalNAc(a1-4)]Gal(b1-4)GlcNAc
# Method in brief: as §1
# [25] = target: Fuc(a1-2)[GalNAc(b1-3)]Gal
# Method in brief: as §1
# Fuc(a1-3)GlcNAc = target: Fuc(a1-3)GlcNAc
# Method in brief: as §1
# [26] = target: Fuc(a1-3)[Gal(b1-4)]Glc6S
# Method in brief: as §1
# [27] = target: Fuc(a1-3)[Gal(b1-4)]GlcNAc
# Method in brief: as §1
# [28] = target: Fuc(a1-3)[Gal(b1-4)]GlcNAc(b1-3)Gal(b1-3)[Fuc(a1-4)]GlcNAc
# Method in brief: as §1
# [29] = target: Fuc(a1-3)[Gal(b1-4)]GlcNAc(b1-4)Gal(b1-4)[Fuc(a1-3)]GlcNAc
# Method in brief: as §1
# [30] = target: Fuc(a1-3)[Gal(b1-4)]GlcNAc(b1-4)Gal(b1-4)[Fuc(a1-3)]GlcNAc(b1-4)Gal(b1-4)[Fuc(a1-3)]GlcNAc
# Method in brief: as §1
# [31] = target: Fuc(a1-3)[Gal(b1-4)]GlcNAc6S
# Method in brief: as §1
# [32] = target: Fuc(a1-3)[Gal3S(b1-4)]Glc6S
# Method in brief: as §1
# [33] = target: Fuc(a1-3)[Gal3S(b1-4)]GlcNAc
# Method in brief: as §1
# [34] = target: Fuc(a1-3)[Gal3S(b1-4)]GlcNAc6S
# Method in brief: as §1
# [35] = target: Fuc(a1-3)[GalNAc(b1-4)]GlcNAc
# Method in brief: as §1
# Fuc(a1-4)GlcNAc = target: Fuc(a1-4)GlcNAc
# Method in brief: as §1
# Fuc(b1-3)GlcNAc = target: Fuc(b1-3)GlcNAc
# Method in brief: as §1
# Gal(a1-2)Gal = target: Gal(a1-2)Gal
# Method in brief: as §1
# Gal(a1-3)Gal = target: Gal(a1-3)Gal
# Method in brief: as §1
# Gal(a1-3)Gal(b1-3)GlcNAc = target: Gal(a1-3)Gal(b1-3)GlcNAc
# Method in brief: as §1
# Gal(a1-3)Gal(b1-4)Glc = target: Gal(a1-3)Gal(b1-4)Glc
# Method in brief: as §1
# Gal(a1-3)Gal(b1-4)GlcNAc = target: Gal(a1-3)Gal(b1-4)GlcNAc
# Method in brief: as §1
# [36] = target: Gal(a1-3)Gal(b1-4)[Fuc(a1-3)]GlcNAc
# Method in brief: as §1
# Gal(a1-3)GalNAc = target: Gal(a1-3)GalNAc
# Method in brief: as §1
# [37] = target: Gal(a1-3)[Gal(a1-4)]Gal(b1-4)GlcNAc
# Method in brief: as §1
# Gal(a1-4)Gal(b1-4)Glc = target: Gal(a1-4)Gal(b1-4)Glc
# Method in brief: as §1
# Gal(a1-4)Gal(b1-4)GlcNAc = target: Gal(a1-4)Gal(b1-4)GlcNAc
# Method in brief: as §1
# Gal(a1-4)GlcNAc = target: Gal(a1-4)GlcNAc
# Method in brief: as §1
# Gal(a1-6)Glc = target: Gal(a1-6)Glc
# Method in brief: as §1
# Gal(b1-2)Gal = target: Gal(b1-2)Gal
# Method in brief: as §1
# Gal(b1-3)Gal = target: Gal(b1-3)Gal
# Method in brief: as §1
binder,measurement,setting,value
Fap1 (Streptococcus parasanguis) (protein) KATSKGTEEKQDSVRENLDKMISEAEVLNDMAARKLITLDAEQQLELMKSLVATQSQLEATKNLIGDPNATVADLQIAYTTLGNNTQALGNELIKLNPNGQIYAVLNNTEASRAATLRSTTTGTKTTFTISDFSNGGTQYYWAGGNANNLKNPISSISAVYDSATGKISWTVEYDPTTILKSPALKTLKTYTGIYIDTSSDSKLSTPTNVLIDGAATNPVTNFYGNGSKGIEYVSKGTTKGVTKHTITFDTAFSGRANDLADLEIKMLAATTLSDPHFYEDGSKGNYGRYNGQTAPYVIANDSGTAIGGYQVSGVNADSIPSDTT,glycan array binding signal (z-score),Fuc(a1-2)Gal,1.54
same,glycan array binding signal (z-score),Fuc(a1-2)Gal(b1-3)GalNAc,0.394
same,glycan array binding signal (z-score),[1],-0.07
same,glycan array binding signal (z-score),[2],0.162
same,glycan array binding signal (z-score),[3],-0.038
same,glycan array binding signal (z-score),Fuc(a1-2)Gal(b1-3)GlcNAc,0.203
same,glycan array binding signal (z-score),[4],-0.516
same,glycan array binding signal (z-score),[5],0.236
same,glycan array binding signal (z-score),Fuc(a1-2)Gal(b1-4)Glc,0.753
same,glycan array binding signal (z-score),Fuc(a1-2)Gal(b1-4)Glc6S,-0.286
same,glycan array binding signal (z-score),Fuc(a1-2)Gal(b1-4)GlcNAc,0.336
same,glycan array binding signal (z-score),[6],-0.39
same,glycan array binding signal (z-score),[7],-0.254
same,glycan array binding signal (z-score),[8],-0.989
same,glycan array binding signal (z-score),[9],0.342
same,glycan array binding signal (z-score),[10],0.38
same,glycan array binding signal (z-score),[11],0.221
same,glycan array binding signal (z-score),Fuc(a1-2)Gal6S(b1-4)Glc,-0.648
same,glycan array binding signal (z-score),[12],0.31
same,glycan array binding signal (z-score),[13],-0.797
same,glycan array binding signal (z-score),Fuc(a1-2)[Gal(a1-3)]Gal,0.463
same,glycan array binding signal (z-score),[14],0.099
same,glycan array binding signal (z-score),[15],0.408
same,glycan array binding signal (z-score),[16],-0.08
same,glycan array binding signal (z-score),[17],0.019
same,glycan array binding signal (z-score),[18],0.102
same,glycan array binding signal (z-score),[19],-0.023
same,glycan array binding signal (z-score),[20],0.03
same,glycan array binding signal (z-score),[21],-0.579
same,glycan array binding signal (z-score),[22],0.226
same,glycan array binding signal (z-score),[23],-0.31
same,glycan array binding signal (z-score),[24],0.312
same,glycan array binding signal (z-score),[25],0.067
same,glycan array binding signal (z-score),Fuc(a1-3)GlcNAc,0.245
same,glycan array binding signal (z-score),[26],-0.255
same,glycan array binding signal (z-score),[27],0.377
same,glycan array binding signal (z-score),[28],-0.293
same,glycan array binding signal (z-score),[29],0.909
same,glycan array binding signal (z-score),[30],0.074
same,glycan array binding signal (z-score),[31],-0.313
same,glycan array binding signal (z-score),[32],0.012
same,glycan array binding signal (z-score),[33],0.175
same,glycan array binding signal (z-score),[34],2.23
same,glycan array binding signal (z-score),[35],0.097
same,glycan array binding signal (z-score),Fuc(a1-4)GlcNAc,0.054
same,glycan array binding signal (z-score),Fuc(b1-3)GlcNAc,0.144
same,glycan array binding signal (z-score),Gal(a1-2)Gal,1.05
same,glycan array binding signal (z-score),Gal(a1-3)Gal,0.49
same,glycan array binding signal (z-score),Gal(a1-3)Gal(b1-3)GlcNAc,0.054
same,glycan array binding signal (z-score),Gal(a1-3)Gal(b1-4)Glc,0.803
same,glycan array binding signal (z-score),Gal(a1-3)Gal(b1-4)GlcNAc,0.194
same,glycan array binding signal (z-score),[36],0.09
same,glycan array binding signal (z-score),Gal(a1-3)GalNAc,0.025
same,glycan array binding signal (z-score),[37],0.144
same,glycan array binding signal (z-score),Gal(a1-4)Gal(b1-4)Glc,0.386
same,glycan array binding signal (z-score),Gal(a1-4)Gal(b1-4)GlcNAc,-0.093
same,glycan array binding signal (z-score),Gal(a1-4)GlcNAc,0.798
same,glycan array binding signal (z-score),Gal(a1-6)Glc,0.864
same,glycan array binding signal (z-score),Gal(b1-2)Gal,-0.828
same,glycan array binding signal (z-score),Gal(b1-3)Gal,-0.318

# Given tab-delimited: part of the list above
binder	measurement	setting	value
Fap1 (Streptococcus parasanguis) (protein) KATSKGTEEKQDSVRENLDKMISEAEVLNDMAARKLITLDAEQQLELMKSLVATQSQLEATKNLIGDPNATVADLQIAYTTLGNNTQALGNELIKLNPNGQIYAVLNNTEASRAATLRSTTTGTKTTFTISDFSNGGTQYYWAGGNANNLKNPISSISAVYDSATGKISWTVEYDPTTILKSPALKTLKTYTGIYIDTSSDSKLSTPTNVLIDGAATNPVTNFYGNGSKGIEYVSKGTTKGVTKHTITFDTAFSGRANDLADLEIKMLAATTLSDPHFYEDGSKGNYGRYNGQTAPYVIANDSGTAIGGYQVSGVNADSIPSDTT	glycan array binding signal (z-score)	Fuc(a1-2)Gal(b1-3)GlcNAc	0.203
same	glycan array binding signal (z-score)	[4]	-0.516
same	glycan array binding signal (z-score)	[5]	0.236
same	glycan array binding signal (z-score)	Fuc(a1-2)Gal(b1-4)Glc	0.753
same	glycan array binding signal (z-score)	Fuc(a1-2)Gal(b1-4)Glc6S	-0.286
same	glycan array binding signal (z-score)	Fuc(a1-2)Gal(b1-4)GlcNAc	0.336
same	glycan array binding signal (z-score)	[6]	-0.39
same	glycan array binding signal (z-score)	[7]	-0.254
same	glycan array binding signal (z-score)	[8]	-0.989
same	glycan array binding signal (z-score)	[9]	0.342
same	glycan array binding signal (z-score)	[10]	0.38
same	glycan array binding signal (z-score)	[11]	0.221
same	glycan array binding signal (z-score)	Fuc(a1-2)Gal6S(b1-4)Glc	-0.648
same	glycan array binding signal (z-score)	[12]	0.31
